{"sequences": {"note": "Protein sequences, listed by entry. Tags and fused reporters are not part of them. Lines headed by an entry give the natural chain unless they say otherwise; changes in a name come on top. Residues count along the entry.", "UniProt P04386": "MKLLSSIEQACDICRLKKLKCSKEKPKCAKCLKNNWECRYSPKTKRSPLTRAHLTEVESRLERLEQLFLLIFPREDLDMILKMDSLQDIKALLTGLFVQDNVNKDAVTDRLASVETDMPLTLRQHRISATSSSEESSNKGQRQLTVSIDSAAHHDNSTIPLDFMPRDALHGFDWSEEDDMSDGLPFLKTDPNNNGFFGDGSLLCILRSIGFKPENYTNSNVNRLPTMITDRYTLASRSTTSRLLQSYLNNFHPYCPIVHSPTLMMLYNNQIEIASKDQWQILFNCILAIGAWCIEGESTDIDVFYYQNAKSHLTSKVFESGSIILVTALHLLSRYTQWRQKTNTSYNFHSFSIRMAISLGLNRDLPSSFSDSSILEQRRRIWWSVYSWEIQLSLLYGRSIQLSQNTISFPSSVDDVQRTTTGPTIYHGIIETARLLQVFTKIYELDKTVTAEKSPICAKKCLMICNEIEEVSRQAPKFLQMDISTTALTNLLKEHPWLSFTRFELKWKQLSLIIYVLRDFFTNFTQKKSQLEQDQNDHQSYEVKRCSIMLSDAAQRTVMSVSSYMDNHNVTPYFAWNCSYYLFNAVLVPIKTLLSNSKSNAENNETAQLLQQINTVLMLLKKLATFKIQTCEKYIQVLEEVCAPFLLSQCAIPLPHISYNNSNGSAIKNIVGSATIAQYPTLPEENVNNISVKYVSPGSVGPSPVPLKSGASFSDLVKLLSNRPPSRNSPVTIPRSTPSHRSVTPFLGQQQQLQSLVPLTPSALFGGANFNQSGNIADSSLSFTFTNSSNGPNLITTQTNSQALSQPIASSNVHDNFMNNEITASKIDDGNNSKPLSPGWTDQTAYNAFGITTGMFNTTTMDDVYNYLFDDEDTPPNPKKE", "UniProt P97454": "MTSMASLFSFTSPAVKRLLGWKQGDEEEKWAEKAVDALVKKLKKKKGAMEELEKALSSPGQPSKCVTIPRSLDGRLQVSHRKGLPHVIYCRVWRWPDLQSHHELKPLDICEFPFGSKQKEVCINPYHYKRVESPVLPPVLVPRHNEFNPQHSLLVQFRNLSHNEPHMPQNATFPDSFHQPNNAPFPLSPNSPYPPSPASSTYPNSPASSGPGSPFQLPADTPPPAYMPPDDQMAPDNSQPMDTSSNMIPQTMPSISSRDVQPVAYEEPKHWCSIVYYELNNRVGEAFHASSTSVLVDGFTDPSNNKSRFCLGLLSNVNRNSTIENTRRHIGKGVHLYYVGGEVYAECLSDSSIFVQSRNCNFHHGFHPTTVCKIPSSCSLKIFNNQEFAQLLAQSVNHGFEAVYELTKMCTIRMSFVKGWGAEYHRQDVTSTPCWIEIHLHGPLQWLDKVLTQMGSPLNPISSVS", "UniProt P70340": "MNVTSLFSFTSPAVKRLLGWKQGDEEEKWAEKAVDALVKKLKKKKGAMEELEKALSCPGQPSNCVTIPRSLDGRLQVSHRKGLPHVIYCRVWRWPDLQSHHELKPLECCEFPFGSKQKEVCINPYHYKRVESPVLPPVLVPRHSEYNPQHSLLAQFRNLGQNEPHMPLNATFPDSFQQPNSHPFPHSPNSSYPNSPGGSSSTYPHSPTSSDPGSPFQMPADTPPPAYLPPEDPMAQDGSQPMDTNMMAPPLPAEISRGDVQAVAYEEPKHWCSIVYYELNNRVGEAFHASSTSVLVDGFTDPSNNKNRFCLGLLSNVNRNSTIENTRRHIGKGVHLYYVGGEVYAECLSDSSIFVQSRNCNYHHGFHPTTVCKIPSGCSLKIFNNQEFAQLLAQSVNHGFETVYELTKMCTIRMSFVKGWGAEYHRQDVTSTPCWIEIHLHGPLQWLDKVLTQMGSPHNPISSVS", "UniProt P97471, residues 252-551": "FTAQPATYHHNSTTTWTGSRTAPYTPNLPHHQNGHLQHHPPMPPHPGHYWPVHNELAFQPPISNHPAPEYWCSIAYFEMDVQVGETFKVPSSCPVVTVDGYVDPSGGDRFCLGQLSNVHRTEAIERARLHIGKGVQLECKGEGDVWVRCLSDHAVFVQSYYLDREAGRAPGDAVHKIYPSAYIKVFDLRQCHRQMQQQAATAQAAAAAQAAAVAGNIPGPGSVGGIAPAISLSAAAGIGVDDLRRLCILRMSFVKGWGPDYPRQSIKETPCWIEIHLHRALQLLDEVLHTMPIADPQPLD"}, "source": "patent US20020035246A1", "key": {"[1]": {"biological_target": "mouse SMAD5 C-domain bait (GAL4DBD fusion) (mouse) (UniProt P04386+P97454)", "experiment": "yeast two-hybrid"}, "[2]": {"biological_target": "mouse SMAD1 C-domain bait (GAL4DBD fusion) (mouse) (UniProt P04386+P70340)", "experiment": "yeast two-hybrid"}}, "note": "Results are given in words; binding and its absence hold for the method and conditions named. Some entries that bind do so weakly or less than the wild type."}
{"substance": "TH72 prey protein (GAL4TAD fused in-frame to a partial SMAD4 starting at amino acid 252) (from UniProt P97471 252-551)", "values": [{"measurement": "binding", "setting": "[1]", "result": "binds"}, {"measurement": "binding", "setting": "[2]", "result": "binds"}]}
